# According to PubChem BioAssay AID493014 (National Center for Advancing Translational Sciences (NCATS), 2011):
# Screen size: about 340,000 compounds; about 170 (0.05%) were called active. This list was built around the results that the source calls inconclusive (neither active nor inactive); the mix of calls is not that of the screen. The call rests on the fitted dose curve; in most records, active means well fitted inhibition curve with a large enough effect in the signal ratio, with a control signal flat (not every such curve was filed as active); inconclusive means small, poorly fitted or top-dose-only effect, or effect the other way, or a change in a side signal; inactive means flat fitted curve, though single readings scatter; the % refers to the signal ratio. Potencies beside an inconclusive call are fits to weak or partial responses and may not hold up.
# Experiment: qHTS Assay to Find Inhibitors of Chronic Active B-Cell Receptor Signaling;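 on activity change, negative = inhibition: plate controls were basal doxycycline-induced cells for no effect and cells given 10 µM MG132 for full effect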
# Settings: ABC-DLBCL IkBa-CBG/CBR reporter, luminescence ratio (green luciferase fused to IkBa over red control in TMD8 lymphoma cells), 4 h; activity change, negative = inhibition: at 46.1 µM (top of the series) unless noted
# Method in brief: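 TMD8 human ABC-DLBCL cells with doxycycline-inducible IκBα–green luciferase fusion and unfused red luciferase, in 0.5% FBS medium; compounds up to 46 uM, 4 h at 37C. Green/red luminescence ratio, filter-overlap corrected, fitted to concentration-response curves.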
# Potency means the concentration at half of the fitted maximal effect.
SMILES,"activity change, negative = inhibition",Potency
O=C(O)c1ccc(-c2ccc(Cl)cc2Cl)o1,inactive,–
CC(OC(=O)c1cc(O)c2ccccc2c1O)C(=O)Nc1ccc(C(N)=O)cc1 (configuration not stated),–,"inconclusive: 20.6 µM [falling, partial curve]"
Cc1cc(C)c2cc(C#N)c(N3CCCN(C(=O)c4cnccn4)CC3)nc2c1,inactive,–
COc1ccc(NC(=O)CC2C(=O)N(c3cccc(OC)c3)C(=O)N2Cc2ccco2)cc1 (configuration not stated),inactive,–
O=C(Nc1nc2ccc(Cl)cc2s1)c1ccco1,–,"inconclusive: 29.1 µM [rising, single point]"
CC1SC(c2ccc(F)cc2)N(CCc2ccccc2)C1=O (configuration not stated),inactive,–
O=C(NNC(=O)c1ccc([N+](=O)[O-])cc1)c1ccncc1,–,"inconclusive: 18.4 µM [falling, single point]"
CN(Cc1nc(Cc2cccc(F)c2)no1)CC1CCOCC1,inactive,–
Cc1ccc(NC(=O)NCc2ccccn2)cc1,inconclusive: -2.34%,–
O=C(NN1C(=O)CSC1=S)C(=O)NN1C(=O)CSC1=S,inactive,–
Cc1cc(S(=O)(=O)n2cnc3cc([N+](=O)[O-])ccc32)ccc1Cl,inconclusive: -3.16%,–
Cc1cc(C)c(C#N)c(SCc2cn3c(C)cccc3n2)n1,–,"inconclusive: 18.4 µM [falling, partial curve, poor fit]"
Cc1sc(C(C2C(=O)CC(C)(C)CC2=O)C2C(=O)CC(C)(C)CC2=O)cc1[N+](=O)[O-],inconclusive: 14.7%,–
NC(=O)C1CCN(C(=O)CCc2nc3sc4c(c3c(=O)[nH]2)CCCC4)CC1,inactive,–
Cc1cccc(CS(=O)(=O)c2cn(CC(=O)N3CCOCC3)c3ccccc23)c1,–,"inconclusive: 15.8 µM [falling, single point]"
O=C(CSc1nnc(-c2cccs2)n1Cc1ccco1)Nc1ccc2c(c1)OCO2,inconclusive: -1.5%,–
Cc1c(NS(=O)(=O)c2ccccc2)cc(Cl)c(O)c1C,inconclusive: 0.569%,–
CCOc1cc(/C=N/NC(=O)CN2CCCCC2)ccc1OCc1ccc(Cl)cc1,inconclusive: 11.2%,–
O=C(NCCN1CCOCC1)c1ccccc1N1C(=O)[C@@H]2Cc3c([nH]c4ccccc34)C(c3ccc(F)cc3)N2C1=O (some centres not stated),inconclusive: -25.7%,–
O=C(NCCOc1ccc(Cl)cc1)C1CC(=O)N(c2ccc3c(c2)OCCO3)C1 (configuration not stated),inactive,–
CCOC(=O)c1cccc(NC(=O)Cn2c(CC(=O)N3CCCC3)nc3ccccc32)c1,inconclusive: 9.62%,–

# Quoted from the listing.
# Entry of Cc1cc(C)c(C#N)c(SCc2cn3c(C)cccc3n2)n1 under Potency: inconclusive: 18.4 µM [falling, partial curve, poor fit]
# Entry of O=C(O)c1ccc(-c2ccc(Cl)cc2Cl)o1 under activity change, negative = inhibition: inactive

# Copied from above (two entries):
SMILES,"activity change, negative = inhibition",Potency
Cc1ccc(NC(=O)NCc2ccccn2)cc1,inconclusive: -2.34%,–
O=C(NN1C(=O)CSC1=S)C(=O)NN1C(=O)CSC1=S,inactive,–

# (continued)

SMILES,"activity change, negative = inhibition",Potency
CCn1c2ccccc2c2nnc(SCc3ccccc3)nc21,inconclusive: 1.8%,–
COCCCNC(=O)c1c(N)n(-c2cccc(S(N)(=O)=O)c2)c2nc3ccccc3nc12,inconclusive: 14.1%,–
O=C(COC(=O)c1c[nH]c2ccccc12)Nc1cccc(F)c1,inconclusive: -17.4%,–
CC(O)CNC(=S)Nc1ccccc1 (configuration not stated),inconclusive: 3.79%,–
CCOC(=O)c1ccccc1NC(=O)CN1C(=O)CCS(=O)(=O)c2ccccc21,inactive,–
Clc1cncc(Cl)c1N/N=C/c1ccncc1,–,"inconclusive: 18.4 µM [cytotoxic, partial curve]"
CC(C)Sc1nc(-c2cccs2)nc2c1c(=O)n(C)c(=O)n2C,inactive,–
C/C(CCc1ccc2c(c1)OCO2)=N\NC(=O)c1ccccc1,–,"inconclusive: 5.8 µM [falling, single point]"
C=CCc1c(C)nc(SC)nc1Nc1ccc(C(=O)O)cc1,inconclusive: 0.264%,–
Cc1cc(C)nc(Nc2cccc(C(F)(F)F)c2)n1,inconclusive: 2.98%,–
COc1ccc(N/C=C2/CCCCC2=O)cc1,–,"inconclusive: 20.6 µM [falling, partial curve, poor fit]"
Cc1cc(C)cc(-n2c3nc4ccccc4nc3c3c(=O)n(Cc4ccco4)cnc32)c1,inconclusive: -20.7%,–
CCOC(=O)c1[nH]c2c(c1-c1ccccc1)C(=O)CC(c1ccc(Cl)cc1)C2 (configuration not stated),inconclusive: 13.9%,–
O=C1Cc2cccc3cccc1c23,inconclusive: -0.0564%,–
O=C(CC1C(=O)NCCN1C(=O)Nc1ccc(C(F)(F)F)cc1)Nc1ccc(F)cc1 (configuration not stated),inconclusive: -24%,–
CCOc1ccc(-c2nc(C)sc2CC(=O)O)cc1,–,"inconclusive: 6.51 µM [falling, partial curve, poor fit]"
Cc1cc(C(=O)N/N=C/c2ccco2)n[nH]1,–,"inconclusive: 25.1 µM [falling, single point]"
O=C(Nc1cc(=O)[nH]c2ncnn12)c1ccc(Cl)cc1Cl,inconclusive: -4.94%,–
O=C(COC(=O)C1C2CC3OC(=O)C1C3C2)Nc1ccccc1 (configuration not stated),inconclusive: -9.34%,–
COc1ccc(Cl)cc1NC(=O)CN(C)C(=O)CCC(=O)c1cc(C)sc1C,inactive,–
O=C(O)c1ccccc1-n1c(-c2ccccc2)cc2c1CCCC2=O,inconclusive: 0.0614%,–

SMILES,"activity change, negative = inhibition",Potency
COc1cccc(C(c2sc3nc(-c4ccco4)nn3c2O)N2CCOCC2)c1 (configuration not stated),inconclusive: 7.81%,–
COC(=O)Cn1c(=NC(=O)CSCC(=O)NC2CCCCC2)sc2cc(OC)ccc21,inconclusive: 1.07%,–
COc1cc(C2NC(=O)C(C#N)=C(S)N2c2ccc(C)cc2)ccc1OC(C)C (configuration not stated),inconclusive: -15.4%,–
CN(Cc1cnccn1)Cc1nc(Cc2ccccc2Cl)no1,inconclusive: 0.532%,–
CC(=O)Nc1ccc(NC(=O)c2cc(-c3ccc(C)c(C)c3O)n[nH]2)cc1,inconclusive: -3.53%,–
O=C(CNC(=O)c1[nH]cnc1C(=O)NC(c1ccccc1)c1ccccc1)OCc1ccccc1,inconclusive: -7.94%,–
O=c1c2cc3c(nc2[nH]c(=S)n1-c1ccccc1)CCCC3,inconclusive: 3.58%,–
CCOc1ccc(CCNC(=O)C2CCN(c3nn4c(=O)cc(C)nc4s3)CC2)cc1OCC,inconclusive: -0.0991%,–
CC(C)Oc1ccc(CN2CCC(n3nccc3NC(=O)CCc3ccccc3)CC2)cc1,inactive,–
COc1ccc(C(CNC(=O)c2sccc2C)N2CCOCC2)cc1 (configuration not stated),–,"inconclusive: 10.3 µM [falling, partial curve]"
COc1ccc2c(CN(C)c3ccccc3)cc(=O)oc2c1,–,active: 14.6 µM
CC1(C)Cc2c(cnn2-c2ccccc2)C(=O)/C1=N\NC(=O)c1ccccc1O,–,"inconclusive: 20.6 µM [falling, single point]"
CCC(=O)N1c2ccc(S(=O)(=O)N3CCN(c4ccc([N+](=O)[O-])cc4)CC3)cc2CC1C (configuration not stated),inconclusive: 4.03%,–
Fc1cccc(Cc2noc(CN3CCC(c4ccncc4)CC3)n2)c1,inactive,–
CCC(Sc1nc2ccccc2c2nc(CCn3cncc3C)nn12)C(=O)Nc1cccc(OC)c1 (configuration not stated),inactive,–
CCN(CC)c1cc(Cl)nc(N)n1,inactive,–
CC1(C)CC(=O)C2=C(C1)NC1=C(C(=O)c3ccccc31)C2c1ccccc1 (configuration not stated),inconclusive: 14%,–
O=C(COC(=O)c1ccco1)Nc1cccc(Br)c1,inactive,–
C=CC[C@H](CC(=O)N(CCO)Cc1ccccc1)C(=O)N[C@@H](COC(=O)[C@@H](CC=C)Cc1ccc(F)cc1)Cc1ccccc1,inconclusive: -0.945%,–
C#CCOC(=O)C(NC(=O)c1ccccc1)=C1CCCCC1,inconclusive: 13.6%,–
O=C(CSC1CS(=O)(=O)c2cc([N+](=O)[O-])ccc21)NNC(=O)c1ccccc1 (configuration not stated),inactive,–

SMILES,"activity change, negative = inhibition",Potency
CCC(C)[C@H](NC(=O)N1CCn2c1nc1ccccc12)C(=O)NCCc1ccc(OC)c(OC)c1 (some centres not stated),inconclusive: 10.4%,–
CCCOc1ccc(C(CC(=O)O)NC(=O)C(c2ccccc2)c2ccccc2)cc1 (configuration not stated),inactive,–
O=C(CC(Nc1ccc(F)cc1)C(=O)OCC(=O)c1cccs1)c1ccccc1 (configuration not stated),inconclusive: -27.9%,–
CC(=O)c1ccccc1NC(=O)CSc1nnc(Cc2csc(C)n2)o1,inconclusive: -0.644%,–
COc1ccc(-c2cn3cc(C(F)(F)F)cc(Cl)c3n2)cc1,inconclusive: 2.35%,–
COc1cc(CCC(=O)OCC(=O)Nc2ccc(Br)cc2F)cc(OC)c1OC,inactive,–
O=C(NCc1ccc2c(c1)OCO2)c1ccc2c(c1)OCCO2,–,"inconclusive: 7.94 µM [falling, partial curve, poor fit]"
O=C(O)c1ccc(CNC(=O)c2ccc3c(c2)OCCO3)cc1,–,"inconclusive: 35.5 µM [falling, single point]"
Cc1cccc(N2CCN(CCCNC(=O)C3CCCN(c4ncnc5c4nc4n5CCCCC4)C3)CC2C)c1 (configuration not stated),inconclusive: -23.9%,–
CCN(C1CCS(=O)(=O)C1)S(=O)(=O)c1cccc([N+](=O)[O-])c1 (configuration not stated),inconclusive: 17.6%,–
O=C(COc1cccnc1[N+](=O)[O-])NCCc1ccc(F)cc1,inconclusive: 2.88%,–
CCOc1ccc2nc(NC(=O)CS(=O)(=O)c3ccccc3)sc2c1,–,"inconclusive: 29.1 µM [falling, single point]"
O=C(Nc1ccc(N2CCCC2)cc1)c1cc2ccccc2o1,inconclusive: -3.15%,–
Cc1ccccc1OCC(=O)N/N=C/c1cccc(Oc2ccc([N+](=O)[O-])cc2[N+](=O)[O-])c1,inactive,–
COC(=O)C(CC(=O)c1ccc(Br)cc1)n1ccnc1 (configuration not stated),–,"inconclusive: 32.6 µM [cytotoxic, single point]"
O=C(N/N=C/c1ccc2c(c1)OCO2)C(O)c1ccccc1 (configuration not stated),–,"inconclusive: 20.6 µM [falling, single point]"
Cc1cc(F)ccc1S(=O)(=O)N1CCCOC1CNC(=O)C(=O)NCCc1ccccc1 (configuration not stated),inactive,–
CCSC1=C(C#N)C(c2cccc(Br)c2)CC(=O)N1 (configuration not stated),inconclusive: -21.1%,–
Fc1ccc(-c2nc3nc4ccccc4nc3n2Cc2ccco2)cc1,inconclusive: -19.2%,–
